# Results of single-concentration screens

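Whole-cell growth test on Mycobacterium tuberculosis, read after 4 days in a medium based on cholesterol and the lipid DPPC; the read-out is not stated. Concentration: 50 µM. The record gives no direction; compounds that gave an IC50 in retests scored well above the rest, so higher reads as more growth inhibition. Size under these conditions: about 69,000 compounds, about 370 of them at 50% or above in at least one test.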

The filed quantity is “Percent Effect” (%). The record does not define 0% and 100%; most values in the screen are far below 50% and negative numbers occur (in some assays of this library far below -100). The compounds are a random part of those screened. Two or more numbers in one place are separate tests of the same structure; such repeats can differ widely.

Compound,Percent Effect
O=C(O)C(F)(F)F.[H][C@@]12COC[C@]1(COc1cccnc1)CN(C(=O)COc1ccccc1)C2,0.04896
COCc1noc(Cn2ncn3cccc3c2=O)n1,-23.28
CCN(C(=O)COC)C(c1ccc(Cl)cc1)c1ccccn1 (centres undefined),11.22
[H][C@@]12CN(Cc3cccnc3)CCO[C@]1([H])CN(C(=O)c1ncccn1)C2,-13.12
Cc1ccc(C(=O)Nc2ccc(N3CCC(O)CC3)c(C#N)c2)s1,26.69
COCC(=O)N1CCC2(CC1)CC(COC)N(c1ncccn1)C2.O=C(O)C(F)(F)F (centres undefined),-0.6836
CC(C)CCC(=O)N1CCC(c2nnc(CN(C)CCO)n2C)CC1,-6.064 and 7.415
CCC(O)CN1CCN(C(=O)Cc2ccc(C)nc2)CC1 (centres undefined),-11.39
COCCC1(CNC(=O)NCC2CCCN(C)C2)CCCC1 (centres undefined),-5.07
CC(C)N(C)Cc1cncc2c1CCN(CC1CC1)C2.Cl.Cl.Cl,-24.49
O=C(N1CCOCC1)N1CCOC[C@H](Oc2ccc(C(F)(F)F)cc2)C1,4.683
Cc1cnc(N2CCCn3c(nnc3Cn3cccn3)C2)nc1,-20.24
c1ccc2oc(C3CCN(Cc4ncon4)CC3)nc2c1,-9.376
CC(=O)N1CCN(CCNS(=O)(=O)c2ccc(C)c(F)c2)CC1,-5.134
O=C(c1cccs1)N1CCCn2c(nc(CN3CCCC3)cc2=O)C1,-13.77
COc1cccc(CN2CCC(c3cc(O)nc(C)n3)C2)c1.O=C(O)CC(O)(CC(=O)O)C(=O)O (centres undefined),-0.499
O=C(Cn1cnc2ccsc2c1=O)c1ccc2c(c1)OCCO2,0.4819
COc1ccc2c(c1)nc1n2[C@@H](CN(C2CCC2)C2CCC2)COC1,-5.2
Cc1noc(C)c1CCNc1nccc(CCC(F)(F)F)n1,12.27
O=C(NCCCN1CCOCC1)c1ccc(-c2ccccc2)[nH]c1=O,-23.28
Cn1c(CN2CCN(CC3CC3)CC2)nnc1C1CCC1,-26.13
[H][C@@]12CS(=O)(=O)C[C@]1([H])N(C(=O)c1snnc1C)CCN2CC=C(C)C,8.126 and -4.349
CC(Nc1ncnc2c1CCNC2)c1ccc(C(C)(C)C)cc1 (centres undefined),25.74
O=C(O)C(F)(F)F.c1ccc(N2CCC3(CCCN(c4ncccn4)C3)C2)nc1 (centres undefined),34.44
O=S(=O)(c1ccccc1)N1CCCC(Cn2cncn2)C1 (centres undefined),9.028
Cc1cc(OCC(N)=O)ccc1NC(=O)C(C)Cc1ccccc1F (centres undefined),-10.12
O=c1[nH]nc(CCCN2CCOCC2)n1Cc1cccc(F)c1,-17.46
CSC1(CNC(=O)NCc2sccc2C)CCOCC1,-6.868
O=C(NC1CC1)c1cc(Sc2ncccn2)ccn1,7.03
CN1CC(C(=O)NCCc2ccc(F)c(Br)c2)CC1=O (centres undefined),3.33
CC(C)CCNC(=O)c1cccnc1Oc1cccnc1,-4.864 and 3.409
CC(=O)Nc1cccc2c1ccn2CC(=O)NC(C)C,-6.914
Cc1nc(C)c(-c2ccn(CC(=O)Nc3cnn(C)n3)n2)s1,0.8673
O=C(NCCN1CCCS1(=O)=O)c1scnc1Cl,-22.44
CCn1ccnc1CN1CCN(CC(=O)NC(C)(C#N)C2CC2)CC1 (centres undefined),-15.96
CCS(=O)(=O)CC(=O)Nc1cccc2c1CN(CC(C)C)C2,-0.7615
NC(=O)[C@@H]1Cc2ccccc2N1C(=O)C1CC(c2ccccc2)=NO1 (some centres undefined),-0.47
Cc1nc(NCCc2ccccc2)cc(C(=O)N2CCOCC2)n1,-3.558
CC(C)(C)CN(CCC#N)C(=O)c1cccc(CC#N)c1,-12.04
CC(C)CN1CC(C(=O)NCCNc2ncccn2)CC1=O (centres undefined),-8.781
O=C(c1ccn(-c2cccc(F)c2)n1)N1CCN(CCO)CC1,-27.28
Cn1nc(C(=O)NN2CCOCC2)c(Cl)c1C(F)(F)F,4.122
CCOc1cc(C)nc(N2CCN(C(=O)c3csnn3)CC2)n1,8.668
CC(C)(CNC(=O)C(C)(C)c1ccccc1F)C(N)=O,6.811
CCC(O)CN1CCN(C(=O)c2cccn2Cc2cccs2)CC1 (centres undefined),3.081
O=C(C1CCOC1)N1CCC2(CC1)CN(Cc1nccs1)CCO2 (centres undefined),-17.28
CC(C)[C@@H]1CN(C(=O)C2(c3ccccc3)CCN(C)CC2)C[C@H]1C(=O)O,10.15
CNC(=O)NC(=O)CCSCc1cc(F)cc2cccnc12,14.13
Cc1cccc(NC(C)C(=O)Nc2nccs2)c1 (centres undefined),-14.2
CCn1cnnc1CNC(=O)N(C)Cc1ccccc1OC,-2.587
O=C(C(CNCc1cccc(O)c1)c1ccccc1)N1CCOCC1 (centres undefined),-5.392
Cn1ccnc1CNCCNc1ncc(Cl)cc1Cl,25.74
c1ccc(-n2cncn2)c(CNCCn2cccn2)c1,-4.869
CN(Cc1ccco1)C1CCC12CCN(C(=O)C1CCOCC1)CC2.O=C(O)C(F)(F)F (centres undefined),-1.208
CN1CCCN(c2ncnc(N3CCOCC3)c2N)CC1,-18.98
O=C(NCCCSc1ccc(F)cc1)C1CCc2cn[nH]c2C1 (centres undefined),16.91
CCNc1nc(-c2cccnc2)c(-c2ccnc(NCCO)n2)s1,-4.489
CC(Nc1ncnc2sccc12)c1cnn(C)c1 (centres undefined),8.452
CN(C)C(=O)N1CCN(Cc2cnc(-c3ccsc3)s2)CC1,-3.416
Cc1nc(CN(Cc2cccs2)C2CCS(=O)(=O)C2)oc1C (centres undefined),9.123
CC(=O)N1CCN(c2ccc3ccc(C(=O)NC4CCCC4)cn23)CC1,9.752
COCCN1CCC12CCN(C(=O)c1ccsc1)CC2.O=C(O)C(F)(F)F,-5.537
Cn1c2c(ccc1=O)CC(NC(=O)Cc1ccsc1)CC2 (centres undefined),22.01
CCCN(C(=O)c1ccncc1)c1nc2c(s1)CCc1c-2cnn1C,40.52
CC(=O)c1ccccc1NC(=O)CCN1CCSCC1,-21.8
CCc1c(C)nc(-n2nc(C3CC3)cc2NC(C)=O)[nH]c1=O,-33.74
O=c1[nH]nc2c(S(=O)(=O)N3CCN(c4ccc(F)cc4)CC3)cccn12,-14.18
O=C(O)C(F)(F)F.O=S(=O)(C1CC1)N1CCc2ncnc(N3CCCC3)c2CC1,-13.31
CN(Cc1ccccc1F)C(=O)Cn1cc(NC(=O)C(C)(C)C)cn1,-19.91
O=C1CCC2(CCN(Cc3cc(F)cc(F)c3)CC2)CN1CCO,-2.759
COc1cccc(OC)c1CN1CCC2(CC(Nc3ccncn3)C2)C1 (centres undefined),-1.68
COC(=O)c1ccc(N2CCN(C(=O)c3cccnc3)C(C)C2)cc1 (centres undefined),2.224
O[C@@H]1C[C@@H](c2nc(-c3ccccc3)no2)N(C2CCOCC2)C1,0.9037
Cn1nc(C2CNCCO2)cc1CCOc1cccc(C(F)(F)F)c1 (centres undefined),3.707
CC1CCCN(c2nccn3c(=O)[nH]nc23)C1 (centres undefined),-7.736
Cn1cc(CN2CCc3nc4ccccc4c(=O)n3CC2)cn1,15.61 and 2.922
COCCNC(=O)NCc1cc(-c2ccncc2)n(C2CCCC2)n1,9.576
O=C(NCCNS(=O)(=O)c1ccc2c(c1)CCCC2)c1ccoc1,19.31
O=C(O)CCc1ccc(S(=O)(=O)Nc2cnn(CC3CC3)c2)cc1,-17.94
NC(=O)CCOc1nc(-c2ccccc2Cl)no1,-22.25
CC(C)Oc1cccc(F)c1C(C(=O)O)N1CCCN(C)CC1 (centres undefined),-3.542
CCc1noc(C2CCCCN2C(=O)c2cccs2)n1 (centres undefined),5.062
O=C1N(Cc2ccc(F)c(F)c2)CCCC1(O)CNCc1cccnc1 (centres undefined),14.41
Cc1nccc(NCc2cncc3c2CCN(S(C)(=O)=O)C3)n1.Cl,6.82
COc1ccc(CCn2cnnc2[S+](C)[O-])cc1 (centres undefined),-9.082
COC(=O)CC1c2cccnc2C(=O)N1Cc1ccccc1 (centres undefined),-15.01
Cc1cnc(-c2nc(O)c3c(n2)CN(C(=O)C2CCOC2)CC3)cn1 (centres undefined),9.708
Cc1[nH]c(=O)[nH]c(=O)c1CC(=O)N1CCC(Oc2ccc(F)cc2)CC1,-0.3131
O=C([C@H]1CCCO1)N1CCc2ncnc(C3CC3)c2CC1,-6.422 and -5.487
COc1ccc(C2(NCc3c(C)nc4c(C)cccn34)CCCC2)cc1.O=C(O)CC(O)(CC(=O)O)C(=O)O,2.629 and 3.2
Cc1ccc(=O)n(CC(=O)N2CCCC(c3nc(C)c(C)s3)C2)n1 (centres undefined),-44.77 and 4.408
Cn1cc(-c2nc(CN3CCN(c4nccs4)CC3)cs2)cn1,18.12
COCC1CN(Cc2ccc(F)cc2)Cc2nn(C)cc21.O=C(O)C(F)(F)F (centres undefined),3.726
Cc1nc[nH]c1CN1CCc2nc3scc(C)c3c(=O)n2CC1.Cl,14.1
[H][C@]12CN(Cc3ncccn3)CC[C@@]1(O)CCN(C(=O)C1CCCC1)C2,-15.84

The first 12 entries again:

Compound,Percent Effect
O=C(O)C(F)(F)F.[H][C@@]12COC[C@]1(COc1cccnc1)CN(C(=O)COc1ccccc1)C2,0.04896
COCc1noc(Cn2ncn3cccc3c2=O)n1,-23.28
CCN(C(=O)COC)C(c1ccc(Cl)cc1)c1ccccn1 (centres undefined),11.22
[H][C@@]12CN(Cc3cccnc3)CCO[C@]1([H])CN(C(=O)c1ncccn1)C2,-13.12
Cc1ccc(C(=O)Nc2ccc(N3CCC(O)CC3)c(C#N)c2)s1,26.69
COCC(=O)N1CCC2(CC1)CC(COC)N(c1ncccn1)C2.O=C(O)C(F)(F)F (centres undefined),-0.6836
CC(C)CCC(=O)N1CCC(c2nnc(CN(C)CCO)n2C)CC1,-6.064 and 7.415
CCC(O)CN1CCN(C(=O)Cc2ccc(C)nc2)CC1 (centres undefined),-11.39
COCCC1(CNC(=O)NCC2CCCN(C)C2)CCCC1 (centres undefined),-5.07
CC(C)N(C)Cc1cncc2c1CCN(CC1CC1)C2.Cl.Cl.Cl,-24.49
O=C(N1CCOCC1)N1CCOC[C@H](Oc2ccc(C(F)(F)F)cc2)C1,4.683
Cc1cnc(N2CCCn3c(nnc3Cn3cccn3)C2)nc1,-20.24

Measurements from “University of Dundee, Small-Polar-MMV Screening Library” (2021), ChEMBL document CHEMBL3988442.